In patent US20030044914A1 (SALK INSTITUTE FOR BIOLOGICAL STUDIES, published 2003):
No constants are given. Whether binding was seen depends on the method and setting. Some binding calls cover weakened binding; strength is not graded here.

Tests used:
xRXRα (Xenopus laevis) [1] = target: T1, xRXRα (Xenopus laevis) (UniProt P51128); experiment: in vitro DNA-binding (gel shift) with in vitro translated proteins
T1 sequence (looked up): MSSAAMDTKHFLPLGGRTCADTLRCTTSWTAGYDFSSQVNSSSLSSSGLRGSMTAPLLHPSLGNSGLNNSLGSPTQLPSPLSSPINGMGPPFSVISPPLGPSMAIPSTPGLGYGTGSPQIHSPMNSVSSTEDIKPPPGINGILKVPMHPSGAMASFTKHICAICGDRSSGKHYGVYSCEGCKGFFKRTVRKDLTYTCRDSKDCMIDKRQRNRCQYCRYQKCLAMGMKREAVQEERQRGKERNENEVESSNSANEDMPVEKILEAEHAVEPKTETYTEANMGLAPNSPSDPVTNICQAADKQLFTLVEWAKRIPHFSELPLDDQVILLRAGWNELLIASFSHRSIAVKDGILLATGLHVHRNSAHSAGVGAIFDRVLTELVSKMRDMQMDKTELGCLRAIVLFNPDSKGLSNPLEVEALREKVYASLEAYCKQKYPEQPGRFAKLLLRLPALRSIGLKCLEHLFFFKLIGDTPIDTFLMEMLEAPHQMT

xRXRα (Xenopus laevis) [2] = target: T1, xRXRα (Xenopus laevis); experiment: in vitro DNA-binding (gel shift) of in vitro translated XOR-6 and xRXRα on direct repeats DR-1 to DR-5

- binding (xRXRα (Xenopus laevis) [1]): binds
- binding (xRXRα (Xenopus laevis) [2]): binds
B1: XOR-6 (Xenopus Orphan Receptor 6) (receptor)
chain: MWKVQETLVLEEEEEEEDASNSCGTGEDEDDGDPKICRACGDRATGYHFNAMTCEGCKGFFRRAVKRNLRLSCPFQNSCVINKSNRRHCQACRLKKCLDIGMRKELIMSDAAVEQRRALIKRKHKLTKLPPTPPGASLTPEQQHFLTQLVGAHTKTFDFNFTFSKNFRPIRRSSDPTQEPQATSSEAFLMLPHISDLVTYMIKGIISFAKMLPYFKSLDIEDQIALLKGSVAEVSVIRFNTVFNSDTNTWECGPFTYDTEDMFLAGFRQLFLEPLVRIHRMMRKLNVQSEEYAMMAALSIFASYRPGVCDWEKIQKLQEHIALTLKDFIDSQRPPSPQNRLLYPKIMECLTELRTVNDIHSKQLLEIWDIQPDATPLMREVFGSPE
notes: Expressed from pCDG-XOR6 (XOR-6 protein coding region) in CV-1 cells; Full-length, about 386 amino acids; also called full-length XOR-6
